PubChem BioAssay AID504786 – Drosophila RNAi Screening Center | 2011
Test: 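Knock-downs reducing HIF reporter induction by the iron chelator DFO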 (primary screen). Cell system: Drosophila S2 cells with a stable HIF luciferase reporter. Reagent: long dsRNA against Drosophila genes, about 0.2 µg dsRNA per well of a 384-well plate. Duration: three days of knock-down, then 20 h of DFO before reading. Conditions: desferrioxamine (DFO) at 100 µM, an iron chelator that mimics hypoxia, for 20 h. Detection: 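HIF reporter luminescence in cells given 100 µM DFO for 20 h, using the mouse ldh-a hypoxia-response element, scored as per-plate z-scores; higher means greater loss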. Direction: z-score: higher = stronger loss of HIF reporter signal.
The screen tested about 21,000 reagents; below is an unselected part of those that have a named target and a result. 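Primary screen; positive scores mean lost reporter signal, so the sign may be inverted from the usual convention.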 Names joined by + are all predicted targets of the reagent.

| target gene | DRSC id | z-score, replicate 1 | z-score, replicate 2 |
| --- | --- | --- | --- |
| CG14024 | DRSC00868 | 0.5 | 0.5 |
| CG14024 | DRSC02354 | -0.2 | -0.3 |
| bip1 | DRSC11327 | -0.4 | -0.2 |
| CG42296 | DRSC00394 | -0.2 | -0.3 |
| Fer1 (48 related 1) | DRSC12507 | -0.1 | -0.1 |
| Fer1 (48 related 1) | DRSC12555 | -0.4 | 0.1 |
| CG42535 | DRSC09041 | -0.2 | -0.6 |
| Hira | DRSC18672 | -0.4 | 0.4 |
| ClC-a (Chloride channel-a) | DRSC14947 | -0.4 | 0.3 |
| ClC-a (Chloride channel-a) | DRSC14948 | -0.4 | -0.3 |
| ClC-a (Chloride channel-a) | DRSC16142 | -0.2 | -0.3 |
| CG33272 | DRSC09116 | -0.3 | -1.2 |
| Or49b (Odorant receptor 49b) | DRSC07494 | -0.1 | -0.5 |
| Dph2 (Diphthamide biosynthesis 2) | DRSC16222 | -0.3 | -0.5 |
| mah (mahogany) | DRSC14645 | -0.2 | 0.2 |
| CG10418 | DRSC09720 | 0 | 0.8 |
| CG3198 | DRSC18292 | 0.2 | 0.1 |
| CG12360 (retired record) | DRSC14505 | -0.1 | -0.5 |
| l(3)mbn (lethal (3) malignant blood neoplasm) | DRSC08793 | 0.1 | -0.2 |
| salr (spalt-related) | DRSC03607 | -0.3 | -0.1 |
| CG1503 | DRSC20512 | -0.3 | -0.3 |
| scaf6 (SR-related CTD associated factor 6) | DRSC10075 | -0.1 | 0.1 |
| scaf6 (SR-related CTD associated factor 6) | DRSC10676 | 0.5 | 0.8 |
| scaf6 (SR-related CTD associated factor 6) | DRSC10678 | 2 | 1.6 |
| Rbsn-5 (Rabenosyn-5) | DRSC03094 | -0.4 | -0.8 |
| Asx (Additional sex combs) | DRSC05924 | 5.7 | 2.7 |
| CG6685 | DRSC10695 | -0.3 | -0.3 |
| CG13138 | DRSC02235 | 0 | 0.1 |
| Gale (UDP-galactose 4'-epimerase) | DRSC08234 | -0.2 | 0.2 |
| CG9932 | DRSC03275 | -0.3 | -0.2 |
| CG31676 | DRSC02387 | -0.4 | -0.4 |
| Drsl2 (Drosomycin-like 2) | DRSC08160 | -0.1 | -0.9 |
| Jon99Ciii (Jonah 99Ciii) | DRSC16859 | 4.3 | 2.4 |
| CG30395 | DRSC03896 | 0.8 | -0.1 |
| Ugt37C1 (UDP-glycosyltransferase family 37 member C1) | DRSC07416 | -0.1 | 0.1 |
| RpS21 (Ribosomal protein S21) | DRSC00833 | 4.6 | 5.4 |
| CG17560 | DRSC15242 | 0 | -0.4 |
| Os-C | DRSC16778 | -0.1 | -0.3 |
| CG13198 | DRSC06323 | -0.1 | -0.6 |
| ORMDL (Orosomucoid 1-like) | DRSC11737 | -0.3 | -0.5 |
| AttC (Attacin-C) | DRSC06886 | -0.3 | -0.3 |
| CG33308 | DRSC01419 | -0.1 | -0.7 |
| CG14563 | DRSC11724 | 0.1 | -0.3 |
| RunxB (Runt related B) | DRSC20395 | -0.3 | -0.3 |
| RunxB (Runt related B) | DRSC20525 | -0.1 | 0 |
| RunxB (Runt related B) | DRSC20526 | -0.9 | -0.4 |
| Ntf-2 (Nuclear transport factor-2) | DRSC20552 | -0.5 | -0.8 |
| Taf12 (TBP-associated factor 12) | DRSC16879 | 0.5 | 0.9 |
| Ranbp21 | DRSC19447 | 1.4 | 1.6 |
| CG18810 | DRSC02701 | -0.1 | 0 |
| Elp5 (Elongator complex protein 5) | DRSC08547 | -0.3 | 1.6 |
| Paip1 (Poly(A) binding protein interacting protein 1) | DRSC07302 | -0.2 | -0.8 |
| CG15545 | DRSC15083 | -0.2 | -0.3 |
| robo2 (roundabout 2) | DRSC00377 | -0.2 | -0.7 |
| robo2 (roundabout 2) | DRSC00378 | -0.2 | -0.6 |
| robo2 (roundabout 2) | DRSC00686 | -0.2 | -0.4 |
| robo2 (roundabout 2) | DRSC00691 | -0.1 | 0 |
| Wnt10 (Wnt oncogene analog 10) | DRSC00990 | -0.2 | -0.1 |
| Wnt10 (Wnt oncogene analog 10) | DRSC02797 | -0.3 | -0.4 |
| uncNacbeta | DRSC00326 | -0.1 | -0.6 |
| Rab9Db + Rab9D + Rab9E | DRSC17656 | -0.2 | -0.3 |
| CG9664 | DRSC00725 | -0.3 | 0.1 |
| Rgk1 (retired record) | DRSC07343 | -0.2 | -0.5 |
| Rgk1 (retired record) | DRSC07344 | 3.5 | 2.7 |
| Acox57D-d (acyl-Coenzyme A oxidase at 57D distal) | DRSC04561 | -0.3 | -0.6 |
| CG5902 | DRSC15912 | -0.2 | -0.4 |
| Cks85A (Cyclin-dependent kinase subunit 85A) | DRSC16562 | -0.1 | -0.5 |
| mil (milkah) | DRSC15696 | -0.2 | -0.7 |
| CG11382 | DRSC18624 | -0.4 | -0.9 |
| l(2)gl (lethal (2) giant larvae) | DRSC00825 | -0.2 | 0.6 |
| CG31517 | DRSC13010 | 0.1 | -0.1 |
| hzg (herzog) | DRSC10549 | 0.9 | 0.1 |
| RanBP3 (Ran binding protein 3) | DRSC14217 | -0.1 | 0.9 |
| bin (biniou) | DRSC10332 | -0.2 | -0.6 |
| CG12825 | DRSC06174 | -0.3 | -0.4 |
| CG8915 | DRSC20119 | -0.1 | -0.1 |
| Cyp4e3 (Cytochrome P450 4e3) | DRSC03306 | -0.3 | -0.2 |
| CG11714 | DRSC09857 | -0.3 | -0.5 |
| Hsc70-5 (Heat shock protein 70 cognate 5) | DRSC07442 | 0 | -0.2 |
| Shawn + Tyler | DRSC19564 | -0.2 | -0.5 |
| Shawn + Tyler | DRSC19565 | -0.4 | -0.6 |
| Acsx1L (Acyl-CoA synthetase X1 L) | DRSC16014 | -1.2 | -0.2 |
| Trm7-32 (tRNA methyltransferase 7-32) | DRSC15741 | -0.2 | 0.3 |

Records listed so far whose target name begins with B or b (2):
| target gene | DRSC id | z-score, replicate 1 | z-score, replicate 2 |
| --- | --- | --- | --- |
| bip1 | DRSC11327 | -0.4 | -0.2 |
| bin (biniou) | DRSC10332 | -0.2 | -0.6 |
